From the supplement of paper PMC4604168 (melanoma cell lines)
The other results are listed elsewhere or left out. Repeats are few or missing, and single values can be far off.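 The apoptosis fraction was the count of cleaved-PARP antibody-stained nuclei relative to all DNA-stained nuclei, imaged in 1,536-well plates. Screening doses were set so most cells survived, and baseline and induced cleaved-PARP levels vary greatly across cell lines.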

Each compound was assayed on A101D (assay: cleaved PARP positive nuclei fraction relative to DMSO control; melanoma cells; higher = more apoptosis). Details: library dose: low library concentration; 72 h.

SMILES	cleaved PARP positive nuclei fraction [%]
CN(c1ncccc1CNc1nc(Nc2ccc3c(c2)CC(=O)N3)ncc1C(F)(F)F)S(C)(=O)=O + Oc1nc(-c2ccc(C(F)(F)F)cc2)nc2c1CSCC2 [XAV939] (first compound 0.08 µM, partner dose 2 µM)	36.8
CS(=O)(=O)c1ccc(C(=O)Nc2ccc(Cl)c(-c3ccccn3)c2)c(Cl)c1 [vismodegib] + COC(=O)c1sccc1S(=O)(=O)Nc1ccc(Nc2ccccc2)cc1OC [GSK0660] (first compound 1 µM, partner dose 1 µM)	25
Cn1sc(=O)n(Cc2ccccc2)c1=O + O=C(O)C(=O)Nc1sc2c(c1C(=O)O)CCNC2 [TCS401] (first compound 0.4 µM, partner dose 1.66667 µM)	8.51
Cn1cnc2c(F)c(Nc3ccc(Br)cc3Cl)c(C(=O)NOCCO)cc21 [selumetinib] + N#Cc1c(O)c2c(-c3ccc(-c4ccccc4O)cc3)csc2[nH]c1=O [A769662] (first compound 0.015 µM, partner dose 2 µM)	19.1
CCN(CC)CCNC(=O)c1c(C)[nH]c(/C=C2\C(=O)Nc3ccc(F)cc32)c1C [sunitinib] + N#Cc1c(O)c2c(-c3ccc(-c4ccccc4O)cc3)csc2[nH]c1=O [A769662] (first compound 0.4 µM, partner dose 2 µM)	125
CS(=O)(=O)c1ccc(C(=O)Nc2ccc(Cl)c(-c3ccccn3)c2)c(Cl)c1 [vismodegib] + Cn1cc(/C=C2\C(=O)Nc3cccnc32)c2ccccc21 [GW441756] (first compound 1 µM, partner dose 0.4 µM)	73.2
COc1ccc(C2=N[C@@H](c3ccc(Cl)cc3)[C@@H](c3ccc(Cl)cc3)N2C(=O)N2CCNC(=O)C2)c(OC(C)C)c1 [Nutlin-3] + Cn1cc(/C=C2\C(=O)Nc3cccnc32)c2ccccc21 [GW441756] (first compound 0.1 µM, partner dose 0.4 µM)	55
COc1ccc(C2=N[C@@H](c3ccc(Cl)cc3)[C@@H](c3ccc(Cl)cc3)N2C(=O)N2CCNC(=O)C2)c(OC(C)C)c1 [Nutlin-3] + COc1ccc(COc2ccc(Cc3cnc(N)nc3N)cc2OC)cc1 [GW2580] (first compound 0.1 µM, partner dose 1 µM)	31.3
C[C@@H](N)c1ccc(C(=O)Nc2ccnc3[nH]ccc23)cc1 + O=C1NC(=O)/C(=C/c2ccc(-c3ccc(F)cc3O)o2)S1 [AS252424] (first compound 0.4 µM, partner dose 1 µM)	26.4
C[C@]1(O)C[C@@H](c2nc(-c3ccc4ccc(-c5ccccc5)nc4c3)c3c(N)nccn32)C1 + Oc1cc(-c2nc(-c3ccccc3)[nH]c2-c2ccncc2)ccc1Cl [L779450] (first compound 0.4 µM, partner dose 0.2 µM)	6.05
CCCCCCCCc1ccc(CCC(N)(CO)CO)cc1 [fingolimod] + COC(=O)c1sccc1S(=O)(=O)Nc1ccc(Nc2ccccc2)cc1OC [GSK0660] (first compound 2 µM, partner dose 1 µM)	67.1
CCN(CC)CCNC(=O)c1c(C)[nH]c(/C=C2\C(=O)Nc3ccc(F)cc32)c1C [sunitinib] + O=C1NC(=O)/C(=C/c2ccc(-c3ccc(F)cc3O)o2)S1 [AS252424] (first compound 0.4 µM, partner dose 1 µM)	15.9
NC1(c2ccc(-c3nc4ccn5c(=O)[nH]nc5c4cc3-c3ccccc3)cc2)CCC1 + CC(C)CCN1c2nc(Nc3cc(F)c(O)c(F)c3)ncc2N(C)C(=O)C1C [BID1870] (first compound 0.4 µM, partner dose 0.2 µM)	17.1
CC(=O)O[C@@]12CO[C@@H]1C[C@H](O)[C@@]1(C)C(=O)[C@H](O)C3=C(C)[C@@H](OC(=O)[C@H](O)[C@@H](NC(=O)OC(C)(C)C)c4ccccc4)C[C@@](O)([C@@H](OC(=O)c4ccccc4)[C@H]21)C3(C)C [Docetaxel] + CCCCCCCCCCCC1=C(O)C(=O)C=C(O)C1=O [Embelin] (first compound 0.0001 µM, partner dose 1.2 µM)	70.8
Cn1cnc2c(F)c(Nc3ccc(Br)cc3Cl)c(C(=O)NOCCO)cc21 [selumetinib] + COc1ccc(COc2ccc(Cc3cnc(N)nc3N)cc2OC)cc1 [GW2580] (first compound 0.015 µM, partner dose 1 µM)	28.1
